Measurements reported in US8980819B2, “4(3)-(4-hydroxy-4-methylpentyl)-3-cyclohexene-1-carbonitrile” (Kao Corporation, priority 2013, dated 2015).

How the values were obtained:
[1] = Odor evaluation by smelling strip method (single compounds); conditions: for Odor Intensity: relative evaluation, 0 denoting odorless and 5 denoting very strong, rounded to nearest whole number; for Main Odor: smelling strip method, expert panel, fragrances sensed mainly
[2] = from Non-Patent Documents 1, 2 and Patent Document 1; cited from earlier work

Compound | Odor Intensity [1] | Main Odor [1] | Odor (known) [2]
4(3)-(4-hydroxy-4-methylpentyl)-3-cyclohexene-1-carbonitrile [Example 1] | 3 | Floral (Muguet) | –
4(3)-(4-methyl-3-pentenyl)-3-cyclohexene-1-carbonitrile [Azuril] | – | – | citrus-like odor
4(3)-(4-hydroxy-4-methylpentyl)-3-cyclohexene-1-carboxaldehyde [Lyral] | – | – | lily of the valley like odor similar to hydroxycitronellal
3-cyano-3-methyl- and 4-cyano-4-methyl-1-(4-methyl-3-pentenyl)cyclohexane | – | – | soft, floral odor
N#CC(=C1CCCCC1)c1ccccc1 [Peonile, 2-cyclohexylidene-2-phenylacetonitrile] | – | – | fresh, grapefruit, geranium, rose floral-like odor
4(3)-(4-hydroxy-4-methylpentyl)-3-cyclohexene-1-carboxaldehyde oxime [Production Example 1] | 1 | Floral (Lily) | –
